# Library screening results

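Whole-cell assay for inhibitors of Mycobacterium tuberculosis growth, labelled Cornell in the record; the read-out is not stated. The concentration is filed as 10 mM, unlikely as a test dose, so the dose is not known. Higher means stronger inhibition (inferred from two other growth screens of the library). Size under these conditions: about 53,000 compounds, about 900 of them at 50% or above in at least one test.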

The filed quantity is “Percent Effect” (%). The record does not define 0% and 100%; most values in the screen are far below 50% and negative numbers occur (in some assays of this library far below -100). Compounds were drawn at random from those tested, without regard to their results.

Compound,Percent Effect
Cc1ccc2c(c1)N(C(=O)c1nccnc1N)CC(C)O2 (stereo unspecified),29.33%
CCCC(=O)N(CCCN1CCOCC1)c1nc2c(F)cccc2s1.Cl,7.328%
O=C(O)C(F)(F)F.O=C(O)C(F)(F)F.[H][C@@]12CCCO[C@]1([H])[C@@H](OCc1ccncc1)CN2Cc1scnc1C,14.61%
COc1ccc2c(c1)CCCN2C(=O)CN1CCOC(C)C1 (stereo unspecified),18.36%
CCC(C)(NC(=O)CCN1CCOC1=O)C(=O)OC (stereo unspecified),-10.12%
CC1CCN(CCNC(=O)C(C)n2cncn2)CC1 (stereo unspecified),-32.18%
Nc1cc(-c2c[nH]nc2C2CCCN2CCCc2ccccc2)ccn1 (stereo unspecified),27.59%
N#Cc1cc(F)c(NCc2ccc(F)cc2)c(F)c1,4.296%
N[C@H]1CN(S(=O)(=O)c2ccccc2)C[C@@H]1C1CC1,-9.711%
O=C(Cn1cccnc1=O)NC(Cc1ccsc1)c1ccccn1 (stereo unspecified),19.11%
COc1ncccc1C(=O)Nc1nc2c(s1)CN(S(=O)(=O)C1CC1)CC2,-0.3566%
O=C(NC1CCC1)C1=NOC2(CCN(Cc3ccc(F)cc3)C2)C1 (stereo unspecified),-50.16%
Cc1ccc(NC2CCCN(CCc3ccccc3)C2)nn1 (stereo unspecified),15.1%
Nc1cc(CCCNC(=O)NC2CC2)nn1-c1ccccc1,5.147%
Cn1ncc2c1NC(=O)CC2c1ccc(O)cc1 (stereo unspecified),2.507%
CC(=O)c1c(F)cccc1NC1CCN(C(=O)C2CCCCC2)CC1,28.67%
CCc1c(C)nc(C)nc1N1C[C@@H](CN(C)CCN(C)C)[C@@H](CO)C1,10.16%
CCN1CC(C(=O)NCc2ccc3c(c2)nc(C)n3C)CCC1=O (stereo unspecified),-4.306%
COCCN1CCC(CN(Cc2ccncc2)C2CCC2)CC1,33%
CSc1ncc(CNC(C)c2cnn(-c3ccccc3)c2C)cn1 (stereo unspecified),19.51%
CC(C)CCNC(=O)CNC(=O)N1CCc2c([nH]c3ccc(Cl)cc23)C1,1.335%
CC(C)NC(=O)CCCn1cnc2ccccc2c1=O,-25.53%
Cc1c(Cl)c(C(F)(F)F)nn1C(C)C(=O)NC1CCN(C)CC1 (stereo unspecified),15.5%
CCC[C@@H]1CN(C(=O)c2cc(-c3cccs3)n(C)n2)C[C@H]1N(C)C,0.03812%
CCS(=O)(=O)NCCNc1c(C#N)cnc2c(F)cc(F)cc12,-1.324%
COCCN(Cc1ccncc1)C(=O)C1COc2ccccc2C1 (stereo unspecified),3.205%
CCc1c(C)nc(-n2nc(-c3cccs3)cc2N)[nH]c1=O,106.9%
O=C(O)C(F)(F)F.[H][C@@]12COC[C@]1(CNS(=O)(=O)C1CC1)CN(c1ncc(F)cn1)C2,-30.08%
Cc1ccccc1C(C)(C)CNC(=O)CCSc1nnnn1C,12.79%
O=C1NCCc2c1sc1ccc(C(=O)N3CC[C@H](CO)[C@H](O)C3)cc21,-8.375%
CCc1nnc(CNC2CCN(c3ncnc4c(C)csc34)CC2)s1,30.43%
Cc1nc(-c2cccc(C(=O)N(C)CC(C)O)c2)cs1 (stereo unspecified),24.11%
CCOc1ccc2oc(-c3cnn(C)c3C)c(O)c(=O)c2c1,17.28%
Cc1nc(C)n(C2CCCN(C(=O)c3cnc[nH]3)C2)n1 (stereo unspecified),6.361%
O=S(=O)(C1CC1)N1CCc2ncnc(N3CCOCC3)c2CC1,16.61%
CCN1CC2(CCCCN2C(=O)C2CCCCC2)CC1=O (stereo unspecified),17.85%
COc1ccc(NC(=O)NC(C)(C)c2noc(C)n2)cc1,-6.153%
Cc1nc(CN2CCc3ncnc(-c4ccncc4)c3CC2)cs1.O=C(O)C(F)(F)F.O=C(O)C(F)(F)F,-23.11%
Cc1cnccc1CN(C)C(=O)c1ccc(Cn2cnnn2)cc1,-30.07%
CCc1cc(-c2cc[nH]n2)nc(N2CCOCC2)n1,-22.69%
FC(F)(F)COCCN1CCCC(c2noc(C3CC3)n2)C1 (stereo unspecified),14.82%
CCOc1nnc(CN(C)C2CCCN(c3cccnn3)C2)s1 (stereo unspecified),26.02%
O=C(CC1CC1)N1CCC2(CC1)CN(c1ccsc1)C(=O)CO2,7.825%
Cc1ccc(-c2ccnc(NC(C)c3ncc[nH]3)n2)c(C)n1 (stereo unspecified),-57.92%
O=C(NCc1cccnc1)Nc1ccn(CC(F)F)n1,27.47%
N#Cc1c(F)cccc1N1CCN(S(=O)(=O)c2cccs2)CC1,16.03%
CCOCC1CC2(CCN(C(=O)C3CCSCC3)CC2)CO1 (stereo unspecified),-26.58%
Cc1cc(C(=O)N2CCCC3(COCCN(c4ccccc4)C3)C2)[nH]n1 (stereo unspecified),29.64%
CN(C)C(=O)c1cccc(C2CCN(c3ncccn3)CC2)n1,0.4892%
COCC1CC2(CCN(C(=O)C3CCSCC3)CC2)CO1 (stereo unspecified),4.508%
CCc1nccn1CCC(=O)N1CC[C@@H](c2sccc2C)[C@H](O)C1,-11.31%
CCC(CNC(=O)c1nc(=O)[nH][nH]1)Oc1ccccc1C(F)(F)F (stereo unspecified),-16.89%
CCc1nc(N2CCCN(c3ncccn3)CC2)c2cnn(C)c2n1,-20.41%
COc1cccc(CC(=O)N2CCC3(CC2)OCCCC3O)c1OC (stereo unspecified),-26.99%
O=C(c1ccnc(-n2ccnc2)c1)N1CCCC(n2ccnc2)C1 (stereo unspecified),-62.19%
Cc1nc(C)n(CC2CN(CCc3cccs3)CCO2)n1 (stereo unspecified),0.8001%
COCC(=O)N1CCC2(CC1)CC(COC)N(c1ncccn1)C2.O=C(O)C(F)(F)F (stereo unspecified),13.67%
Cc1cc(CN2CCC(c3ccnn3CCO)CC2)no1,8.667%
O=S(=O)(NCC(O)c1ccoc1)c1ccc(Cl)s1 (stereo unspecified),-26.09%
COc1ccc(CN(C)c2ncc(S(N)(=O)=O)s2)c(OC)c1,1.103%
Cc1cc(NC(=O)CN(C)CC2CCCN2c2cccnn2)n(C)n1 (stereo unspecified),8.814%
CSCCCN1CCn2nc(CNC(C)=O)cc2C1,-42.52%
CC(=O)N(c1ccc(C)cc1)c1nc(CN2CCCCC2C)cs1 (stereo unspecified),-13.77%
COc1ccc(CNC(=O)c2ccoc2CN2CCNC(=O)C2)cc1,13.2%
COCCNC(=O)C1CN(Cc2nccs2)Cc2ccnn2C1.O=C(O)C(F)(F)F.O=C(O)C(F)(F)F (stereo unspecified),10.49%
Cc1c(NCc2cccc(C#N)c2)cccc1S(=O)(=O)NC1CC1,-3.064%
Cc1cc(N2CCOCC(Cc3ccc4[nH]ccc4c3)C2)ncn1 (stereo unspecified),26.85%
CC[C@@H](C)[C@H](NC(=O)Cn1ccc2c(Cl)cccc21)C(=O)O,-14.21%
CCOc1ccc(CN2CCC3(CC2)CNC(=O)C3)cn1,7.219%
COC(=O)CN1CCC(C(F)(F)F)CC1,21.07%
O=C(O)C(F)(F)F.O=C(O)C(F)(F)F.[H][C@@]12CCN(c3ccncn3)C[C@@]1([H])O[C@@H](C(=O)NCc1cccnc1)C2,15.26%
Cc1c(CN(C)C(=O)c2ccnn2C)cnn1C,6.118%
COc1cc(CNC(=O)c2cc(Cl)ccc2F)ccn1,-13.44%
COc1cccc(OCC2CCCN(Cc3ncc[nH]3)C2)c1 (stereo unspecified),-4.529%
Fc1ccc(N2CCOC(Cc3cccnc3)C2)cc1 (stereo unspecified),-15.24%

The values are deposited in ChEMBL (CHEMBL3988442, “University of Dundee, Small-Polar-MMV Screening Library” (2021)).